Paper PMC3264566
For at least one entry, the source does not settle the construct or the ends of the probe. At least one verdict was read from the data and is not stated in words by the source.

Sequences of proteins named here, by UniProt entry; tags and fusion partners are left off. Residues count along the entry.
UniProt P21866, 124-225: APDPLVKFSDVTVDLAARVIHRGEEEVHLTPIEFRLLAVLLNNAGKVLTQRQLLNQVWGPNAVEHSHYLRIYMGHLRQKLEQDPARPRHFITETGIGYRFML

Target: KdpE DBD (KdpEDBD) (Escherichia coli str. K-12 substr. MG1655) (UniProt P21866)
Test: EMSA
Conditions: EMSA: 10 mM Tris pH 8.0, 50 mM NaCl, 5% glycerol, 0.1% Triton X-100, 10 mM DTT, 1 mM EDTA, 1 uM DNA, 6% gel in TBE, temperature not stated; recombinant protein; residues 124-225; protein details: N-terminal His-tag removed with TEV

Sequence: CATTTTTATACTTTTTTTACACCCCGCCCG (double strand) [kdpFABCBS 30 bp]
- binding result: binds
